{"sequences": {"note": "Sequences of proteins named here, by UniProt entry; tags and fusion partners are left off.", "UniProt P21730": "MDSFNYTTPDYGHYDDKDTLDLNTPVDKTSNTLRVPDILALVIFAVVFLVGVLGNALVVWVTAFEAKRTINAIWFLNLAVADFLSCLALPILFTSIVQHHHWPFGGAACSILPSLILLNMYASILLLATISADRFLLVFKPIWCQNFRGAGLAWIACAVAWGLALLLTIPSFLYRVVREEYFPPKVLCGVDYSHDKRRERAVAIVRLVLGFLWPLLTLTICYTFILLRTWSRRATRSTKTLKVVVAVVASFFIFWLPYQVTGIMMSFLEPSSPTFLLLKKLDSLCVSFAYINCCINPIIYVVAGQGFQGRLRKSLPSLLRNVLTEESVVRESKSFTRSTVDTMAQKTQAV", "UniProt P32121": "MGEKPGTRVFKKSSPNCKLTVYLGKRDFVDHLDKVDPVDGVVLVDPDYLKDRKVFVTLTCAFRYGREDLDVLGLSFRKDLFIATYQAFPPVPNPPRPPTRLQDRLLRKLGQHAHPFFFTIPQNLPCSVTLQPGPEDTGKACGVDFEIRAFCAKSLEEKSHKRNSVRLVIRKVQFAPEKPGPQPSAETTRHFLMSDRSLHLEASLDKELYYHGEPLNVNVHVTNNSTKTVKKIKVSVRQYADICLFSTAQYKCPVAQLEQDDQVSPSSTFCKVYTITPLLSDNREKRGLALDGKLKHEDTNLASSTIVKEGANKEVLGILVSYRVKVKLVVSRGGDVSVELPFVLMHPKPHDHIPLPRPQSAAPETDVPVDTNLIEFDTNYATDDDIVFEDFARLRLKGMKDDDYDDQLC", "UniProt P49407": "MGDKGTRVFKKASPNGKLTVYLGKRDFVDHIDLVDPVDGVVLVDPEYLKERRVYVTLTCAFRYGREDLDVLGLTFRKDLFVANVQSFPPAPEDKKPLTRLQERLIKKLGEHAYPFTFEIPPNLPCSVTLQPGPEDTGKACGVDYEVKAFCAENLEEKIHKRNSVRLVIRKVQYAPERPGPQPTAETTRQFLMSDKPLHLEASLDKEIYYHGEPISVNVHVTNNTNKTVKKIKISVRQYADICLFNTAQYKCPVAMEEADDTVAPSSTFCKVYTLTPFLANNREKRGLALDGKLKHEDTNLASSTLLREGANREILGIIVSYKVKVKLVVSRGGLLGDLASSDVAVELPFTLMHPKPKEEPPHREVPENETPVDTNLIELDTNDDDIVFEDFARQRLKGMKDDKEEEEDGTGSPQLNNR"}, "source": "paper doi:10.1101/2023.02.09.527835", "about": "(bioRxiv, 2023)", "key": {"[1]": {"target": "C5aR1 with SmBiT fused at the C-terminus (Receptor-SmBiT) (UniProt P21730)", "experiment": "split reporter"}, "[2]": {"target": "T1, C3aR with SmBiT fused at the C-terminus (Receptor-SmBiT) (human) (UniProt Q16581)", "T1 sequence": "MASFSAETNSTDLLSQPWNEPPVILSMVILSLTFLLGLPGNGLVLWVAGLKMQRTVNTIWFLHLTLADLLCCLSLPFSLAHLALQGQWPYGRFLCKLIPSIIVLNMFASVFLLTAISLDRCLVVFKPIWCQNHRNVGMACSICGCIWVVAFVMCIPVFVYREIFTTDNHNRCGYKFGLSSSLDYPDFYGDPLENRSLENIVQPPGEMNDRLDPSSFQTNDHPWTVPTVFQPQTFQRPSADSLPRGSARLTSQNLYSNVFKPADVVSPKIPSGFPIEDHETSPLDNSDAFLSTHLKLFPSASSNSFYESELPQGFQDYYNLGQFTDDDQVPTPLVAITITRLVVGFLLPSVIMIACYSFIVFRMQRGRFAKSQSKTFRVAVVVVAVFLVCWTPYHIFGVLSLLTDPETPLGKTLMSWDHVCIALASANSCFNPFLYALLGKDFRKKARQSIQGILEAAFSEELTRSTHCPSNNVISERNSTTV", "experiment": "split reporter"}}, "note": "Results are given in words; binding and its absence hold for the method and conditions named. Binding seen in cells or lysates may run through a third protein. Some results given as binding are weak or reduced against the parent protein; the word gives no strength. For some of these results: Tags and fused reporters may be left off the sequences shown."}
{"substance": "βarr2 with N-terminal LgBiT (from UniProt P32121 1-409)", "values": [{"measurement": "binding", "setting": "[1]", "result": "binds"}, {"measurement": "binding", "setting": "[2]", "result": "binds"}]}
{"substance": "βarr1 with N-terminal LgBiT (from UniProt P49407 1-418)", "values": [{"measurement": "binding", "setting": "[1]", "result": "binds"}, {"measurement": "binding", "setting": "[2]", "result": "binds"}]}
